According to patent publication US10857167B2, “Use of oligosaccharide compositions to enhance weight gain” (Children's Hospital Medical Center, priority 2015, dated 2020):
Further values from the same series stand in other lists.

Tested on: distal small bowel gene expression
Experiment: RNA sequencing / transcriptional analysis of small bowel 56 days after ICR (2′-FL signature response)
Assay type: in vivo, mouse
Source text: Luminal small bowel contents were expressed into AllProtect Tissue Reagent (Qiagen Inc, CA). Bacterial DNA was extracted using the AllPrep DNA/RNA Mini Kit (Qiagen Inc, CA), according to kit instructions and prior to sequencing (described below). Small bowel tissue samples for RNA were placed into RNA Later (Life Technologies, NY). RNA extraction was accomplished following Qiagen RNeasy Plus Kit instruction (Qiagen Inc, CA). All nucleic acid samples were then stored at -80 Celsius until sequenced (described below). Transcriptional analysis was carried out on resected and harvested small bowel samples obtained from operated mice taken to 8 weeks. Murine RNA sequencing libraries were prepared from approximately 1.5 μg RNA using the TruSeq RNA Sample Preparation Kit (Illumina, Calif.) and sequenced using the HiSeq 2000 Sequencing System (Illumina, Calif.) with single-end 50 bp reads. Following removal of primers and barcodes, sequences were aligned to the mm10 genome using reference annotations from UCSC (Rosenbloom et al. (2015) Nucleic acids research 43: […]-681) (n=36,186 entities). Aligned reads were quantified and used to compute reads per kilobase per million mapped reads (RPKM); raw counts were then normalized using the DESeq algorithm and each harvested sample was baselined to its own resected sample. A filter was applied to the data, requiring at least three reads in all samples of at least one of the four experimental conditions (n=14,489 entities). The data discussed in this publication have been deposited in NCBI's Gene Expression Omnibus and are accessible through NCBI Gene Expression Omnibus (GEO) Series accession number GSE72590. Edgar et al. (2002) Nucleic acids research 30: 207-210. In order to characterize the impact of 2'-FL supplementation while accounting for the effect of ileoecal resection, a t-test was applied between resected and harvested samples within control and experimental animals. Significance was set at a p-value of ≤0.05 and a fold change of 3, which generated 2,576 differentially regulated entities across two comparisons. Gene set unions and intersections of the control and experimental gene sets were identified through Venn diagrams. From the master list, the gene list specific to animals supplemented with 2'-FL were removed in order to identify genes differentially regulated only by ICR (n=546 entities); this gene set characterizes the adaptive response. Further, the 2'-FL response (n=2,030 entities) was identified by removing the adaptive response signature described above from the master list, leaving only genes regulated by 2'-FL supplementation after ICR which were not found in the non-supplemented adaptive response. Heatmaps were generated using hierarchical clustering with the Pearson's Centered distance metric and the average linkage rule; both entities and samples were clustered. All genomic analyses described above were performed in Strand NGS (Strand Life Sciences, CA). Gene list functional enrichment was initially discovered using ToppFun, a member of the ToppGene Suite. Chen et al. (2009) Nucleic acids research 37: […]-311. No statistical correction was selected. Gene lists were further analyzed using ClueGO, a plugin for Cytoscape designed to decipher functionally grouped gene ontology and pathway annotation networks. Bindea et al. (2009) Bioinformatics 25: 1091-1093. At the time of data analysis, the annotation files were updated from sources to Jan. 1, 2015. “GO Term Fusion” was enabled to manage ontologic term redundancy and network specificity was set to medium. Results were restricted to pathways with p≤0.05 using Benjamini-Hochberg correction and Kappa scoring was set to 0.4. Biocyc annotations were assigned a rectangle, gene ontology biologic processes were assigned an ellipse, and […] annotations were assigned a diamond shape. No meaning was assigned to size or color. […]

Which results are given for `C[C@@H]1O[C@@H](O[C@H]2[C@H](O[C@H]3[C@H](O)[C@@H](O)C(O)O[C@@H]3CO)O[C@H](CO)[C@H](O)[C@@H]2O)[C@@H](O)[C@H](O)[C@@H]1O` (stereo partly shown) [2′-FL, 2′-fucosyllactose]?
Fold Change (Pre- to Post-op) (gene Atp11a): −6.265; Fold Change (Pre- to Post-op) (gene Atp13a2): −4.151; Fold Change (Pre- to Post-op) (gene Atxn1l): −3.373; Fold Change (Pre- to Post-op) (gene Atxn2): −3.262; Fold Change (Pre- to Post-op) (gene Atxn2l): −4.941; Fold Change (Pre- to Post-op) (gene Auts2): −6.286; Fold Change (Pre- to Post-op) (gene Azi1): −6.343; Fold Change (Pre- to Post-op) (gene B4galnt4): −3.419; Fold Change (Pre- to Post-op) (gene B130055M24Rik): −3.6; Fold Change (Pre- to Post-op) (gene B230344G16Rik): −7.416; Fold Change (Pre- to Post-op) (gene BC021891): −3.319; Fold Change (Pre- to Post-op) (gene BC031361): −4.114; Fold Change (Pre- to Post-op) (gene BC043934): −3.587; Fold Change (Pre- to Post-op) (gene Bace1): −3.357; Fold Change (Pre- to Post-op) (gene Bach2os): −3.118; Fold Change (Pre- to Post-op) (gene Bahcc1): −5.364; Fold Change (Pre- to Post-op) (gene Bcl9): −8.66; Fold Change (Pre- to Post-op) (gene Bcl11b): −3.312; Fold Change (Pre- to Post-op) (gene Bcorl1): −4.655; Fold Change (Pre- to Post-op) (gene Bcr): −4.246; Fold Change (Pre- to Post-op) (gene Bdkrb2): −4.961; Fold Change (Pre- to Post-op) (gene Bend4): −4.095; Fold Change (Pre- to Post-op) (gene Bgn): −4.162; Fold Change (Pre- to Post-op) (gene Bicc1): −3.443; Fold Change (Pre- to Post-op) (gene Bicd1): −4.848; Fold Change (Pre- to Post-op) (gene Bmp6): −3.399; Fold Change (Pre- to Post-op) (gene Bmpr2): −7.126; Fold Change (Pre- to Post-op) (gene Bptf): −3.805; Fold Change (Pre- to Post-op) (gene Braf): −3.487; Fold Change (Pre- to Post-op) (gene Brd4): −6.028; Fold Change (Pre- to Post-op) (gene Brpf3): −3.04; Fold Change (Pre- to Post-op) (gene Brwd3): −4.326; Fold Change (Pre- to Post-op) (gene Btbd11): −5.136; Fold Change (Pre- to Post-op) (gene C1qtnf1): −8.932; Fold Change (Pre- to Post-op) (gene C2cd3): −3.778; Fold Change (Pre- to Post-op) (gene C6): −5.385; Fold Change (Pre- to Post-op) (gene C030034L19Rik): −4.233; Fold Change (Pre- to Post-op) (gene C77080): −4.128; Fold Change (Pre- to Post-op) (gene Cachd1): −8.438; Fold Change (Pre- to Post-op) (gene Cacna1b): −4.254; Fold Change (Pre- to Post-op) (gene Cacna1c): −5.413; Fold Change (Pre- to Post-op) (gene Cacna1g): −4.123; Fold Change (Pre- to Post-op) (gene Cacna2d2): −9.02; Fold Change (Pre- to Post-op) (gene Cacnb1): −3.777; Fold Change (Pre- to Post-op) (gene Cacng7): −3.343; Fold Change (Pre- to Post-op) (gene Cadm3): −4.45; Fold Change (Pre- to Post-op) (gene Calb2): −5.684; Fold Change (Pre- to Post-op) (gene Calcoco1): −4.418; Fold Change (Pre- to Post-op) (gene Camk2a): −4.72; Fold Change (Pre- to Post-op) (gene Camsap1): −3.101; Fold Change (Pre- to Post-op) (gene Camsap2): −3.063; Fold Change (Pre- to Post-op) (gene Camsap3): −3.732; Fold Change (Pre- to Post-op) (gene Camta2): −5.196; Fold Change (Pre- to Post-op) (gene Card10): −5.726; Fold Change (Pre- to Post-op) (gene Card11): −4.334; Fold Change (Pre- to Post-op) (gene Caskin2): −3.804; Fold Change (Pre- to Post-op) (gene Cbl): −7.339; Fold Change (Pre- to Post-op) (gene Cblb): −3.136; Fold Change (Pre- to Post-op) (gene Cbx6): −3.54; Fold Change (Pre- to Post-op) (gene Ccbe1): −3.665; Fold Change (Pre- to Post-op) (gene Ccnd2): −3.093; Fold Change (Pre- to Post-op) (gene Ccnk): −3.329; Fold Change (Pre- to Post-op) (gene Cd4): −4.924; Fold Change (Pre- to Post-op) (gene Cd93): −5.94; Fold Change (Pre- to Post-op) (gene Cd300lg): −3.318; Fold Change (Pre- to Post-op) (gene Cdc42bpa): −6.529; Fold Change (Pre- to Post-op) (gene Cdc42bpb): −4.85; Fold Change (Pre- to Post-op) (gene Cdc42bpg): −3.131; Fold Change (Pre- to Post-op) (gene Cdc42ep1): −5.317; Fold Change (Pre- to Post-op) (gene Cdh2): −4.591; Fold Change (Pre- to Post-op) (gene Cdh5): −5.117; Fold Change (Pre- to Post-op) (gene Cdk5r1): −3.831; Fold Change (Pre- to Post-op) (gene Cdk5r2): −4.645; Fold Change (Pre- to Post-op) (gene Cdk5rap2): −4.57; Fold Change (Pre- to Post-op) (gene Cdon): −4.418; Fold Change (Pre- to Post-op) (gene Ceacam1): −3.435; Fold Change (Pre- to Post-op) (gene Celf3): −3.115; Fold Change (Pre- to Post-op) (gene Celsr2): −7.304; Fold Change (Pre- to Post-op) (gene Cep164): −4.079; Fold Change (Pre- to Post-op) (gene Cep170b): −5.544; Fold Change (Pre- to Post-op) (gene Cep250): −4.807; Fold Change (Pre- to Post-op) (gene Cers6): −4.036; Fold Change (Pre- to Post-op) (gene Cfd): −3.425; Fold Change (Pre- to Post-op) (gene Cgn): −3.074; Fold Change (Pre- to Post-op) (gene Cgnl1): −8.2398; Fold Change (Pre- to Post-op) (gene Chadl): −3.171; Fold Change (Pre- to Post-op) (gene Chd3): −5.876; Fold Change (Pre- to Post-op) (gene Chd4): −3.814; Fold Change (Pre- to Post-op) (gene Chd5): −7.199; Fold Change (Pre- to Post-op) (gene Chd6): −4.615; Fold Change (Pre- to Post-op) (gene Chpf): −3.44; Fold Change (Pre- to Post-op) (gene Chrm1): −3.086; Fold Change (Pre- to Post-op) (gene Chrm2): −4.255; Fold Change (Pre- to Post-op) (gene Chrnb2): −3.737; Fold Change (Pre- to Post-op) (gene Chrnb4): −5.944; Fold Change (Pre- to Post-op) (gene Chst1): −3.15; Fold Change (Pre- to Post-op) (gene Chst8): −5.96; Fold Change (Pre- to Post-op) (gene Chst11): −4.644; Fold Change (Pre- to Post-op) (gene Chst14): −3.582; Fold Change (Pre- to Post-op) (gene Chst15): −4.432; Fold Change (Pre- to Post-op) (gene Cic): −7.164; Fold Change (Pre- to Post-op) (gene Cit): −4.43; Fold Change (Pre- to Post-op) (gene Clca1): −3.554; Fold Change (Pre- to Post-op) (gene Clip1): −4.327; Fold Change (Pre- to Post-op) (gene Clmn): −4.752; Fold Change (Pre- to Post-op) (gene Clstn1): −3.195; Fold Change (Pre- to Post-op) (gene Clstn2): −3.437; Fold Change (Pre- to Post-op) (gene Cmip): −6.16; Fold Change (Pre- to Post-op) (gene Cmklr1): −5.115; Fold Change (Pre- to Post-op) (gene Cnnm1): −4.203; Fold Change (Pre- to Post-op) (gene Cnnm3): −3.437; Fold Change (Pre- to Post-op) (gene Cnot3): −4.042; Fold Change (Pre- to Post-op) (gene Cntn1): −3.899; Fold Change (Pre- to Post-op) (gene Col1a1): −5.343; Fold Change (Pre- to Post-op) (gene Col4a1): −4.982; Fold Change (Pre- to Post-op) (gene Col4a2): −7.238; Fold Change (Pre- to Post-op) (gene Col5a3): −3.185; Fold Change (Pre- to Post-op) (gene Col6a1): −3.172; Fold Change (Pre- to Post-op) (gene Col6a2): −4.259; Fold Change (Pre- to Post-op) (gene Col6a4): −4.048; Fold Change (Pre- to Post-op) (gene Col9a2): −6.261
